Laboratory results published in publication PMC6047807.
No constants are given. Whether binding was seen depends on the method and setting. Some entries that bind do so weakly or less than the wild type. Where a sequence is shown, tags or fusion partners need not be part of it.

Amino acid sequences for entries named in this document (tags omitted).
UniProt P06612: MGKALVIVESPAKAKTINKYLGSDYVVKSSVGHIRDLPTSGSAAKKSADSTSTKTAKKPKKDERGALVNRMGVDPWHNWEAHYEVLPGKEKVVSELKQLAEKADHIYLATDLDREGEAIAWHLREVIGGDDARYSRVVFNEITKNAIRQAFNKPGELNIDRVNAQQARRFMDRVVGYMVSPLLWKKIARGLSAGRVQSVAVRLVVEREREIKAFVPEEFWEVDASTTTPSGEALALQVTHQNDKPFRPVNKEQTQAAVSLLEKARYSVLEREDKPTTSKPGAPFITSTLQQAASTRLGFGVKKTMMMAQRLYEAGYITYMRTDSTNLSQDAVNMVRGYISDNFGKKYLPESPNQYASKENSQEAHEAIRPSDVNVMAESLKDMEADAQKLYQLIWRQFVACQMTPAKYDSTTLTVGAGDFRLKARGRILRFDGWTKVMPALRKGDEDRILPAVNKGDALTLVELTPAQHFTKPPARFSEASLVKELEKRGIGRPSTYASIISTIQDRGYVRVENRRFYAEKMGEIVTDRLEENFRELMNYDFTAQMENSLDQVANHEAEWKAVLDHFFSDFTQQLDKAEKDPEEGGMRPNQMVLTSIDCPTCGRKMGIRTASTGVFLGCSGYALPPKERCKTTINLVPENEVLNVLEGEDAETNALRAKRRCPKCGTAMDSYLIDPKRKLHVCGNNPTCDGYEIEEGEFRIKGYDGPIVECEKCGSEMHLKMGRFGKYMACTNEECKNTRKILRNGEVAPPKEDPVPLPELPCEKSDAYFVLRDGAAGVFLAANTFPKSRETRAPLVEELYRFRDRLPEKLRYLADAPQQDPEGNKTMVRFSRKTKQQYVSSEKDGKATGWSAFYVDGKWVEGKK

Target: Topoisomerase I (TopA) fused to T25 (E. coli) (UniProt P06612)
Assay: two-hybrid; bacterial two-hybrid (T18 and T25 fragments, cAMP-dependent lacZ reporter) in E. coli BTH101; colour of colonies and streaks on LB plates with X-gal, 30 °C, 30 hours

B1: RstA fused to T18 (protein, UniProt P52108 1-239)
chain: MNTIVFVEDDAEVGSLIAAYLAKHDMQVTVEPRGDQAEETILRENPDLVLLDIMLPGKDGMTICRDLRAKWSGPIVLLTSLDSDMNHILALEMGACDYILKTTPPAVLLARLRLHLRQNEQATLTKGLQETSLTPYKALHFGTLTIDPINRVVTLANTEISLSTADFELLWELATHAGQIMDRDALLKNLRGVSYDGLDRSVDVAISRLRKKLLDNAAEPYRIKTVRNKGYLFAPHAWE
- binding: binds weakly
